From PubChem BioAssay AID2551 (National Center for Advancing Translational Sciences (NCATS), 2010)
Values joined by “and” are separate entries in the source; they are usually repeats but may differ in a detail not shown here. Identical values can stand only once. The whole screen tested about 310,000 compounds, of which about 17,000 (5.5%) were called active. The shares of active, inactive and inconclusive entries below differ from those in the screen. Calls follow the shape of the dose curve; as a rule, active = well fitted inhibition curve with a large enough effect; inconclusive = small, poorly fitted or top-dose-only effect, or effect the other way; inactive = no such curve, though single readings can be large or run the other way. Potencies of inconclusive entries are doubtful fits and often do not repeat.

Sequences of proteins named here, by UniProt entry; tags and fusion partners are left off. A change or cut given only in a name is not applied to a line headed by its entry.
UniProt P51450: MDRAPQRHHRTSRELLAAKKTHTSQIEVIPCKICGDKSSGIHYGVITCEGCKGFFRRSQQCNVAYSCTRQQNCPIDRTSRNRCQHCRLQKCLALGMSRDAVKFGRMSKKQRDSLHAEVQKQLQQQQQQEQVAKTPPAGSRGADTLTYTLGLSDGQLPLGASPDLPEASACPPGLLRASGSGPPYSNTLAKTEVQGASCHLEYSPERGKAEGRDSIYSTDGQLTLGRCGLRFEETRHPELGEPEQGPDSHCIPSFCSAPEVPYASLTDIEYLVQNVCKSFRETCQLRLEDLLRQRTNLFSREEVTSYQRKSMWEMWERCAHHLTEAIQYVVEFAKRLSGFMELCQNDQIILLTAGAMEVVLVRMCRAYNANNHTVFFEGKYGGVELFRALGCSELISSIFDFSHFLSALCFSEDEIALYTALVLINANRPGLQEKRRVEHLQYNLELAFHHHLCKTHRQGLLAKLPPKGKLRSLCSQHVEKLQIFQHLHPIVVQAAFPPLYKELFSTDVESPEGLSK

Molecular target: Nuclear receptor ROR-gamma (Mus musculus) (UniProt P51450)
Assay: qHTS for inhibitors of ROR gamma transcriptional activity; also: nearly all actives have a fitted effect of over 60% in size
Details: Drosophila S2 Gal4-RORgamma UAS-luciferase reporter, 20 h; activity change, negative = inhibition: at 53.6 µM (top of the series)
In short: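 Using a luciferase readout, inhibitors were identified by reduced reporter activity in Drosophila cells coexpressing a copper-inducible Gal4–ROR gamma fusion and UAS-driven Photinus luciferase, incubated 20 hr after 700 uM copper sulfate.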
% is scaled to controls: 0 for no effect and ±100 for the full control effect; potency is read from the fitted curve at half-maximal effect.

`O=C(Nc1nnc(-c2ccco2)o1)c1cccc(Cl)c1` was tested. Which Potency did it give?
The Potency was active: 3.55 µM.

For `O=C(CCC(=O)c1ccc(F)cc1)Nc1cccc(S(=O)(=O)Nc2cccc(Cl)c2)c1`, which Potency is on record?
The Potency was inconclusive: 35.5 µM [inhibitor, single point].

How did the “activity change, negative = inhibition” value turn out when `COC(=O)[C@@]1(Cc2ccc(OC)cc2)[C@H]2c3cc(C(=O)N4CCCC4)n(Cc4ccc(O)c(OC)c4)c3C[C@H]2CN1C(=O)c1ccccc1` was run?
The value was inactive: 37.4%.

Which Potency does the source give for `COc1ccc(NC(=O)Cn2nnc(-c3ccccc3NC(=O)c3ccco3)n2)cc1` here?
The Potency was inconclusive: 35.5 µM [inhibitor, single point].

With `COc1ccc(-c2noc(CCC(=O)N(C)c3cccc(C)c3)n2)cc1` as the compound, how does the “activity change, negative = inhibition” value read?
The value was inactive: 6.74%.

Which “activity change, negative = inhibition” value does the source give for `O=C(NCCc1ccccc1)C1CCC(CNS(=O)(=O)c2ccccc2)CC1` (configuration not stated) here?
The value was inactive: -17%.

For `Cc1ccc(CNC(=O)c2ccc(N3CCc4ccccc43)c([N+](=O)[O-])c2)cc1`, which Potency is on record?
The Potency was inconclusive: 17.8 µM [activator, single point].

How did the “activity change, negative = inhibition” value turn out when `Cc1cc(C(=O)CSc2nnnn2C)c(C)n1CCc1ccc(F)cc1` was run?
The value was inactive: -2.39%.

For `S=C(Nc1cccc(Cl)c1)N1CCN(Cc2ccccc2)CC1`, which Potency is on record?
The Potency was active: 10 µM.

`O=C(CSc1nc2ncc(Br)cc2[nH]1)Nc1ccc2c(c1)OCO2` was tested. Which Potency did it give?
The Potency was inconclusive: 0.0631 µM [inhibitor, full curve, poor fit].

`Cc1nc(NCCc2ccc(O)cc2)c2nnn(Cc3ccccc3)c2n1` was tested. Which Potency did it give?
Its Potency is inconclusive: 8.91 µM [activator, partial curve].

Which Potency does the source give for `O=C(CCSc1ccc(Cl)cc1)NC12CC3CC(CC(C3)C1)C2` here?
The Potency was inconclusive: 15.8 µM [activator, partial curve].

For `COCC1CCN(C(=O)c2cc(COc3ccc4ncccc4c3)on2)CC1`, which Potency is on record?
The Potency was inconclusive: 35.5 µM [inhibitor, single point].

How did the Potency turn out when `COc1cccc(/C=N/Nc2ncnc3c2[nH]c2ccc(C)cc23)c1OC` was run?
The Potency was active: 6.31 µM.

Which “activity change, negative = inhibition” value does the source give for `COc1cc(NC(=S)NC(C)=O)ccc1NC(=O)C(C)C` here?
The value was inactive: 0.199%.

Which Potency does the source give for `COc1ccccc1NC(=O)c1nnn(CC(=O)Nc2ccccc2)c1N` here?
Its Potency is inconclusive: 17.8 µM [activator, single point].

Which “activity change, negative = inhibition” value does the source give for `O=C(NC1CCSC1=O)c1ccc(Oc2cccc(C(F)(F)F)c2)nc1` (configuration not stated) here?
The value was inactive: 17.2%.

`N#CCCn1c(=O)c(-c2ccccc2)nc2cnc(N3CCOCC3)nc21` was tested. Which “activity change, negative = inhibition” value did it give?
Its value is inactive: 14.4%.

How did the Potency turn out when `O=C(NCc1cccs1)C1CCCN1C(=O)Nc1ccccc1[N+](=O)[O-]` (configuration not stated) was run?
The Potency was inconclusive: 12.6 µM [inhibitor, single point].

For `CC(C)c1ccc(S(=O)(=O)/N=C2/C=C(Sc3ncn[nH]3)C(=O)c3ccccc32)cc1`, which Potency is on record?
Its Potency is inconclusive: 6.31 µM [inhibitor, single point].

`FC(F)(F)Oc1ccc(NC(=S)Nc2ccccc2N2CCOCC2)cc1` was tested. Which Potency did it give?
Its Potency is active: 7.94 µM.

How did the Potency turn out when `O=C(CSC(=S)N1CCOCC1)Nc1nc(-c2ccccc2)c(-c2ccccc2)o1` was run?
Its Potency is active: 11.2 µM.

With `CCOC(=O)COc1ccc(S(=O)(=O)NCc2ccncc2)cc1` as the compound, how does the Potency read?
The Potency was inconclusive: 3.98 µM [activator, single point].

For `O=C(Nc1ccccc1)C1=C[C@@H](c2ccccc2)C[C@@H](OCc2ccc(CO)cc2)O1`, which Potency is on record?
The Potency was inconclusive: 1.12 µM [activator, partial curve].

How did the “activity change, negative = inhibition” value turn out when `CCOC(=O)c1c(NC(C)=O)sc2c(OCC(O)CNC(C)(C)C)c(Br)ccc12` (configuration not stated) was run?
The value was inactive: 1.21%.

Which Potency does the source give for `O=C(Nc1ccc(Oc2ccccc2)cc1)c1ccc(Cn2c(=O)[nH]c3ccsc3c2=O)cc1` here?
The Potency was inconclusive: 22.4 µM [activator, single point].

How did the Potency turn out when `CC(C)(C)C(=O)Nc1ccc(C(=O)Nc2cccc(Oc3ccc(C(=O)O)c(C(=O)O)c3)c2)cc1` was run?
Its Potency is inconclusive: 35.5 µM [inhibitor, single point].

Which Potency does the source give for `COc1ccc(/C(N)=N/OC(=O)Cc2ccc(C)cc2)cc1OC` here?
The Potency was inconclusive: 8.91 µM [activator, partial curve].

`COc1cccc(OCCOc2cccc(/C=N/n3cnnc3)c2)c1` was tested. Which Potency did it give?
The Potency was inconclusive: 3.16 µM [activator, single point].

For `CCOC(=O)c1ccc(NC(=O)c2ccccc2)cc1`, which “activity change, negative = inhibition” value is on record?
The value was inactive: 33.7%.

How did the Potency turn out when `Cc1ccc2nc(N/N=C/c3ccccc3C#N)nc(-c3ccccc3)c2c1` was run?
Its Potency is active: 11.2 µM.

Which Potency does the source give for `CCC(c1nnc(SCC(=O)Nc2nnc(-c3ccccc3)o2)o1)N(C)C` (configuration not stated) here?
The Potency was active: 12.6 µM.

`CN(Cc1ccccc1)C(=O)COC(=O)c1ccccc1Nc1ccccc1` was tested. Which Potency did it give?
The Potency was inconclusive: 10 µM [activator, partial curve].

`C=CCN(c1ccc(C(=O)NCCc2ccccc2)cc1)S(C)(=O)=O` was tested. Which Potency did it give?
Its Potency is inconclusive: 2.24 µM [activator, full curve].

Which Potency does the source give for `C/C(=N\NC(=O)CCn1nnc2ccccc21)c1cccs1` here?
The Potency was inconclusive: 7.08 µM [activator, full curve].

For `COc1cc(C=O)ccc1OCc1cccc(Br)c1`, which Potency is on record?
The Potency was inconclusive: 35.5 µM [inhibitor, single point].

For `Cn1ncc2c(N3CCN(c4ccc(Cl)c(Cl)c4)CC3)ncnc21`, which “activity change, negative = inhibition” value is on record?
Its value is inactive: 11.1%.

For `COCCNC(=O)c1ccccc1-c1ccccc1C(=O)O`, which Potency is on record?
The Potency was inconclusive: 35.5 µM [inhibitor, single point].

`Cc1ccc(CNS(=O)(=O)c2ccc3c(c2)n(C)c(=O)n3C)cc1` was tested. Which Potency did it give?
The Potency was inconclusive: 14.1 µM [activator, partial curve].

With `CN(C)CCCN1C(=O)C(=O)/C(=C(/O)c2ccc3c(c2)OCCO3)C1c1ccco1` (configuration not stated) as the compound, how does the Potency read?
Its Potency is inconclusive: 10 µM [activator, partial curve].

Which “activity change, negative = inhibition” value does the source give for `COc1ccc(CNC(=O)CN(C)Cc2ccc(SC)cc2)cc1` here?
The value was inactive: -2.88%.

Which “activity change, negative = inhibition” value does the source give for `CC(C)(C)c1ccc(OCCCn2ccnc2)cc1` here?
The value was inactive: -115%.

Which Potency does the source give for `COC(=O)C1=C(C)N(Cc2ccccc2)C(=S)N[C@H]1c1cccc(F)c1` here?
The Potency was active: 5.01 µM and active: 4.47 µM.

With `COc1cccc(-c2nnc3sc(-c4ccccn4)nn23)c1` as the compound, how does the “activity change, negative = inhibition” value read?
Its value is inactive: 25.1%.

For `O=C(NCc1ccc2c(c1)OCO2)c1cnc2ccccn2c1=O`, which Potency is on record?
The Potency was inconclusive: 22.4 µM [inhibitor, single point].

For `O=S1(=O)CCOCCN1Cc1ccc(Cl)cc1Cl`, which “activity change, negative = inhibition” value is on record?
The value was inactive: -18.4%.

With `COc1ccc(-c2oc3ccccc3c(=O)c2O)cc1OC` as the compound, how does the Potency read?
Its Potency is active: 6.31 µM.
